Data source: PubChem BioAssay AID504791 (Drosophila RNAi Screening Center, 2011)
In all, the deposit lists about 23,000 reagents; below is a random part of those that have a named target and a result. In the full data, 199 (0.86%) were called active. 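Plate-scaled ratios behind the calls are not deposited; printed light signals are raw; many rows marked increased or decreased are still called inactive.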 A number with no mark means an inactive call. Reagents against one gene are numbered here. Reagent sequences are not shown.

Test: 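Factors in Argonaute-based small RNA production and activity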 (primary screen)
Cell system: Drosophila S2-derived reporter cells
Reagent: long dsRNA against Drosophila genes, about 150-250 ng dsRNA per well (siRNA assay); about 80-120 ng (miRNA assay)
Timing: about 5 days (siRNA assay); about 4 days (miRNA assay)
Treatment: copper sulfate induction of reporters: 25 µM (siRNA assay); 200 mM stated (miRNA assay), 1-2 days before reading
Read-out: 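Dual luciferase assay: Renilla to firefly signal ratio in each well, scaled to the mean ratio of its plate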
Scale: siRNA reporter hit score: higher = 3 marks a strong hit with raised ratio; -3 a strong hit with lowered ratio
Units: stable assay Renilla, run 1 in luminescence; stable assay firefly, run 1 in luminescence
Hit rule: 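First-pass picks had plate-scaled ratios over 1.5 for the siRNA assay, over 1.6 for the miRNA assay, or under 0.6; two distinct dsRNAs had to score alike on retest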

What is on record for Cyp6u1 (Cytochrome P450 6u1)?
stable assay Renilla, run 1: 37728; stable assay firefly, run 1: 1.33e6

How did the screen score CG9919?
stable assay Renilla, run 1: 6250; stable assay firefly, run 1: 5.69e5

What is on record for bark (bark beetle)?
stable assay Renilla, run 1: 7079; stable assay firefly, run 1: 3.59e5

With CG9286, how do the results read?
stable assay Renilla, run 1: 10585; stable assay firefly, run 1: 4.87e5

For CG34445, what does the deposit list?
stable assay Renilla, run 1: 4071; stable assay firefly, run 1: 4.22e5

For BckdhB (Branched chain keto acid dehydrogenase E1 subunit beta), what does the deposit list?
stable assay Renilla, run 1: 5104; stable assay firefly, run 1: 3.58e5

For CG12506, what was measured?
stable assay Renilla, run 1: 7895; stable assay firefly, run 1: 4.79e5

For CG12836, how do the results read?
stable assay Renilla, run 1: 6891; stable assay firefly, run 1: 4.79e5

For Ide (Insulin degrading metalloproteinase), how do the results read?
stable assay Renilla, run 1: 8424; stable assay firefly, run 1: 3.40e5

What did the screen give for Cpr62Bc (Cuticular protein 62Bc)?
stable assay Renilla, run 1: 4894; stable assay firefly, run 1: 2.85e5

What is on record for CG9641?
stable assay Renilla, run 1: 84105; stable assay firefly, run 1: 3.30e5

Part of the list above, set out differently:
Target gene | reagent no. | siRNA reporter hit score | stable siRNA reporter change | miRNA reporter change | stable assay Renilla, run 1 | stable assay firefly, run 1
CG12506 | 1 | – | – | – | 7895 | 4.79e5
CG12836 | 1 | – | – | – | 6891 | 4.79e5
Ide (Insulin degrading metalloproteinase) | 1 | – | – | – | 8424 | 3.40e5
Cpr62Bc (Cuticular protein 62Bc) | 1 | – | – | – | 4894 | 2.85e5
CG9641 | 1 | – | – | – | 84105 | 3.30e5

Additional entries follow:
What is on record for Ipk2 (Inositol phosphate kinase 2)?
stable assay Renilla, run 1: 8646; stable assay firefly, run 1: 5.45e5

With Dus1 (Dihydrouridine synthase 1), how do the results read?
stable assay Renilla, run 1: 7234; stable assay firefly, run 1: 4.36e5

With smash (smallish) #1, what does the deposit list?
miRNA reporter change: reporter ratio lowered past the hit cutoff; stable assay Renilla, run 1: 7567; stable assay firefly, run 1: 4.28e5

What did the screen give for smash (smallish) #2?
stable assay Renilla, run 1: 5819; stable assay firefly, run 1: 3.97e5

What is on record for CG42594 #1?
siRNA reporter hit score: 3; stable siRNA reporter change: reporter ratio raised past the hit cutoff; stable assay Renilla, run 1: 4668; stable assay firefly, run 1: 1.47e5

For CG42594 #2, what was measured?
stable assay Renilla, run 1: 5991; stable assay firefly, run 1: 2.79e5

Which result is listed for CG42594 #3?
stable assay Renilla, run 1: 4311; stable assay firefly, run 1: 4.12e5

For CG46298, how do the results read?
stable assay Renilla, run 1: 7076; stable assay firefly, run 1: 3.31e5

What did the screen give for Def (Defensin)?
stable assay Renilla, run 1: 6931; stable assay firefly, run 1: 3.77e5

With CG13531, what does the deposit list?
stable assay Renilla, run 1: 6931; stable assay firefly, run 1: 3.96e5

How did the screen score PCNA2 (Proliferating cell nuclear antigen 2)?
stable assay Renilla, run 1: 6811; stable assay firefly, run 1: 3.39e5

With HLH4C (Helix loop helix protein 4C) #1, what was measured?
stable assay Renilla, run 1: 4595; stable assay firefly, run 1: 2.99e5

For HLH4C (Helix loop helix protein 4C) #2, how do the results read?
stable assay Renilla, run 1: 9195; stable assay firefly, run 1: 6.64e5

With Ssdp (Sequence-specific single-stranded DNA-binding protein), how do the results read?
stable assay Renilla, run 1: 6678; stable assay firefly, run 1: 3.51e5

For disco (disconnected), what does the deposit list?
stable assay Renilla, run 1: 6147; stable assay firefly, run 1: 4.60e5

How did the screen score CG4101?
stable assay Renilla, run 1: 6610; stable assay firefly, run 1: 3.60e5

With Gr64b (Gustatory receptor 64b), what does the deposit list?
stable assay Renilla, run 1: 6654; stable assay firefly, run 1: 4.57e5

What did the screen give for mRpL44 (mitochondrial ribosomal protein L44)?
stable assay Renilla, run 1: 6519; stable assay firefly, run 1: 3.84e5

With Nha1 (Na[+]/H[+] hydrogen antiporter 1), what does the deposit list?
stable assay Renilla, run 1: 11862; stable assay firefly, run 1: 4.67e5

Which result is listed for CG11694?
stable assay Renilla, run 1: 6734; stable assay firefly, run 1: 3.93e5

How did the screen score srw (shrew)?
stable assay Renilla, run 1: 7318; stable assay firefly, run 1: 5.55e5

What is on record for Past1 (Putative Achaete Scute Target 1)?
siRNA reporter hit score: 3; stable assay Renilla, run 1: 7095; stable assay firefly, run 1: 3.74e5

What did the screen give for Rdh (Red herring) #1?
stable assay Renilla, run 1: 5567; stable assay firefly, run 1: 3.13e5

With Rdh (Red herring) #2, what was measured?
stable assay Renilla, run 1: 3792; stable assay firefly, run 1: 2.73e5
